In PubChem BioAssay AID493014 (National Center for Advancing Translational Sciences (NCATS), 2011):
The other results are listed elsewhere or left out. The main result of the screen is listed elsewhere. These columns were measured beside it and carry no call. The list favours compounds with an active or inconclusive main result. The note in brackets gives the kind of curve behind each potency; many fits are weak.

Assay: qHTS Assay to Find Inhibitors of Chronic Active B-Cell Receptor Signaling
Settings: ABC-DLBCL IkBa-CBG/CBR reporter, luminescence ratio (green luciferase fused to IkBa over red control in TMD8 lymphoma cells), 4 h
How it was run: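 Concentration-response series (up to 46 uM) were applied to TMD8 dual-reporter cells for 4 h at 37C with doxycycline. Green/red ratio, after filter-overlap correction, defined %Activity; red signal alone was normalised to basal cells and zero luminescence.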

[1] = measured here: CBR red luminescence, cell number

Structure (SMILES) | AC50 [1] | AC50 (measured here: IkBa-CBG green luminescence)
Cc1ccc(C)n1-c1ccccc1N | 18.4 µM [falling, partial curve, poor fit] | –
CC(C)N1CCC(N2CCN(Cc3ccc(Oc4ncccn4)cc3)CC2CCO)CC1 (configuration not stated) | 35.5 µM [rising, single point] | –
O=C(Nc1ccc2c(c1)OCO2)c1cnc(Cl)c(Cl)c1 | 7.31 µM [falling, partial curve] | 5.8 µM [rising, partial curve, poor fit]
Cc1cc(C(=O)NN=C2CCCCCC2)c(C)o1 | 7.94 µM [falling, partial curve] | –
COCC1CCCN(C(=O)c2ccc3oc(C(C)C)nc3c2)C1 (configuration not stated) | 25.1 µM [falling, single point] | –
O=C(N/N=C/c1ccc([N+](=O)[O-])cc1)c1c[nH]c2ccccc12 | 22.4 µM [falling, partial curve, poor fit] | –
CCC(C)c1ccc(NC(=O)CSc2nncn2N)cc1 (configuration not stated) | 6.51 µM [rising, single point] | –
Cc1nc2cc(NC(=O)c3ccc(Cl)cc3)ccc2n1C | 7.94 µM [falling, partial curve] | –
COc1ccccc1CN(C(=O)Cc1cccs1)C(C(=O)NC1CCCC1)c1ccncc1 (configuration not stated) | 15.8 µM [falling, single point] | –
COC(=O)c1ccc(CSc2nc3sc(C)c(C)c3c(=O)[nH]2)cc1 | 3.16 µM [falling, partial curve, poor fit] | –
CCCCCCCn1c(=N)n(CC(=O)c2ccco2)c2ccccc21 | 0.731 µM [falling, full curve, poor fit] | –
CC(C)(C)OC(=O)C[C@H]1C/C=C\C[C@H](CC(=O)N[C@H](CO)Cc2ccccc2)C(=O)N[C@H](C(C)(C)C)COC1=O | 13 µM [rising, partial curve, poor fit] | –
COC(CNC(=O)c1ccc(CS(=O)(=O)c2ccccc2)o1)OC | 0.631 µM [rising, partial curve, poor fit] | –
Cc1ccc(N2C(=O)CC(Sc3ncn[nH]3)C2=O)cc1C (configuration not stated) | 0.316 µM [falling, full curve, poor fit] | –
Cc1ccc2cc(CN(CC3CCCO3)C(=O)c3cccs3)c(=O)[nH]c2c1 (configuration not stated) | 11.2 µM [rising, partial curve, poor fit] | –
COc1cc(/C=N/Nc2ccc(Cl)c(C(=O)O)c2)ccc1OCC(=O)N1C(C)CCCC1C (configuration not stated) | 11.2 µM [falling, single point] | –
CCOc1ccc(C(C)=O)cc1COC(=O)CNC(=O)c1cccs1 | 18.4 µM [rising, single point] | –
COC(=O)/C(=C\Nc1ccc(Oc2ccc(F)cc2F)nc1)NC(=O)c1ccccc1 | 35.5 µM [rising, single point] | –
C#Cc1ccc([C@H]2C=C(C(=O)N3CCN(Cc4ccc5c(c4)OCO5)CC3)O[C@@H](OCC)[C@@H]2CCCO)cc1 | 35.5 µM [falling, single point] | –
CC(=O)Nc1ccc(CN2CCCCCCC2)cc1 | 5.62 µM [falling, single point] | –
COc1cc([N+](=O)[O-])ccc1NC(=S)NNC(=O)c1ccc2c(c1)OCO2 | 12.6 µM [falling, single point] | –

By substructure, those above containing an aryl methoxy group
Structure (SMILES) | AC50 [1] | AC50 (measured here: IkBa-CBG green luminescence)
COc1ccccc1CN(C(=O)Cc1cccs1)C(C(=O)NC1CCCC1)c1ccncc1 (configuration not stated) | 15.8 µM [falling, single point] | –
COc1cc(/C=N/Nc2ccc(Cl)c(C(=O)O)c2)ccc1OCC(=O)N1C(C)CCCC1C (configuration not stated) | 11.2 µM [falling, single point] | –
COc1cc([N+](=O)[O-])ccc1NC(=S)NNC(=O)c1ccc2c(c1)OCO2 | 12.6 µM [falling, single point] | –

The listing continues.

Structure (SMILES) | AC50 [1] | AC50 (measured here: IkBa-CBG green luminescence)
Cc1ccc(S(=O)(=O)Oc2ccc(C(c3c(C)[nH][nH]c3=O)c3c(C)[nH][nH]c3=O)cc2)cc1 | 32.6 µM [falling, single point] | –
O=C(C1CCCN(S(=O)(=O)c2cccs2)C1)N1CCN(C2CCCCC2)CC1 (configuration not stated) | 2.06 µM [rising, single point] | –
Cn1c(=O)c2c(nc(NC(Cc3ccccc3)C(=O)O)n2Cc2ccccc2)n(C)c1=O (configuration not stated) | 7.08 µM [falling, partial curve] | –
C=CCSc1nnc2c(n1)OC=Nc1ccccc1-2 | 18.4 µM [falling, single point] | –
CCCCN(C)C(=O)c1nc2ccccn2c1CNC1CCC1 | 14.1 µM [rising, partial curve, poor fit] | –
CCN(CC)S(=O)(=O)c1cccc(C(=O)Nc2ccccc2C(=O)N2CCOCC2)c1 | 13 µM [rising, partial curve, poor fit] | –
O=C(N/N=C\c1c(O)ccc2ccccc12)c1ccc(O)cc1 | 11.2 µM [falling, partial curve] | –
Cc1cc(C)c(NC(=O)CNC(=O)c2ccc3ncsc3c2)c(C)c1 | 5.8 µM [falling, partial curve] | –
C#CCCOC(=O)Nc1ccccc1 | 3.16 µM [rising, single point] | –
Cc1ccc(NC(=S)N2CCN(C)CC2)c(C)c1 | 14.6 µM [rising, partial curve, poor fit] | –
c1ccc(SCCN2CCN(c3ccccc3)CC2)cc1 | 1.58 µM [rising, full curve, poor fit] | –
CCCCC1C2C(=O)N(c3ccc(C)cc3)C(=O)C2ON1c1ccccc1 (configuration not stated) | 10 µM [falling, partial curve, poor fit] | –
COc1ccc(Br)cc1CNC(=O)Cc1c(C(=O)O)[nH]c2ccc(Cl)cc12 | 17.8 µM [falling, partial curve, poor fit] | –
COc1ccc(NC(=S)NCC2CCCO2)c(OC)c1 (configuration not stated) | 25.9 µM [rising, single point] | –
COc1cccc(NC(=O)COc2ccc(C)cc2)c1 | 23.1 µM [falling, single point] | –
C/C=C(\C)CN1CCN(c2cc(C)ccc2C)CC1 | 35.5 µM [rising, single point] | –
CCc1ccc(C(=O)COC(=O)c2cccnc2Cl)cc1 | 35.5 µM [rising, single point] | –
Cc1cc(NC(=O)C(=O)c2cn(C)c3ccccc23)no1 | 0.631 µM [falling, full curve] | –
COc1ccc(NC(=S)Nc2cccc(Cl)c2)cc1OC | 5.01 µM [rising, partial curve, poor fit] | –
Cc1[nH]c2ccccc2c1CN1CCC(CO)(Cc2ccccc2)CC1 | 28.2 µM [falling, single point] | –
